Measured values reported in paper PMC10163288.
Some of the results follow.

B1: il2ra_site2_2erj_normal_mot_HHH_b1_07584_000000201_0001_42_55_H_._HHH_b1_01248_0001_0000200004_0000001_0 (protein)
chain: SSSSDELEREVARLAVEAIELAHKGNPEEARKALEEALRLAEENNNETLARYLELALRHLGSSSS
B2: il2ra_site2_2erj_sap_20_mot_HHH_b1_07562_000000147_0001_41_55_H_._HHH_b1_08513_0001_0000200003_0000001_0_0001 (protein)
chain: SSSSDELRELYELLVALLHLVHNNDEEEFEKVVERAEKLAEKLNSESAKEAIEHLERLLGSSSSS
B3: il2ra_site1_3nfp_normal_mot_01923d483164837742cf829bee572cc5_0001_af2_000000153_0001_17_30_H_._HHH_b1_07621_af2_0001_0000700009_0000001_0_af2pred_0001_1_af2pred … (protein)
chain: SSSSEESLREAAKILVEALVKINGLSEEQKKKLEELAEELAERGLSAHEISEFLARLAARLSSSS
B4: il2ra_site2_2erj_sap_19_mot_35d2dc24e2c4431f89e6f806b163ecf8_0001_af2_000000142_0001_35_50_H_._HHH_b2_04240_af2_0001_0000200011_0000001_0_0001 (protein)
chain: SSSSDEKLHEIFRLASELLKAIAEGDEEKAKELFEEVRRVIEENNSENAEEILEWLERHLKSSSS
B5: il2ra_site1_3nfp_sap_11_mot_HHH_b1_01335_af2_000000258_0001_39_53_H_._99fa4ef3a3c7fd23d1d34353b8d2f85a_0001_0001_0000100004_0000001_0_0001 (protein)
chain: DELEEFSEAVKQLAKVAGVPHVEVSVSNGSVEVTFEGDNHDARIASKIVEFHAEKWGIKVEVEVE
B6: il2ra_site1_2b5i_normal_mot_HHH_b2_04910_000000118_0001_1_19_H_._HHH_b1_04606_0001_0000100006_0000001_0_af2pred_dldesign_0_af2pred (protein)
chain: SSSSSPEGERLRELIRKANELYQQGKYDEAKKLLEEALELAKKLGSTLLVKFLESCLKQISSSSS
B7: il2ra_site1_2b5i_normal_mot_2cbe48e66a1f39b3fed734b245ab0a04_0001_000000015_0001_17_31_H_._HHH_b2_00053_0001_0001100018_0000001_0_af2pred_dldesign_0_af2pred (protein)
chain: SSSSSSSAEEEVNKLLEEAAKAEDEIEQSKLLFEALKIARNAKDPELVAKVEARAAELLSSSSSS
B8: il2ra_site2_3nfp_normal_mot_HHH_b1_05627_af2_000000038_0001_43_56_H_._HHH_b1_00337_0001_0000500020_0000001_0 (protein)
chain: SSSSDKQEEYVRIALEIAKLAIEQGDPKAARESLEAALQLAEDIGNPELFQEIEELLEELRSSSS
B9: il2ra_site2_3nfp_normal_mot_HHH_b1_01086_af2_000000264_0001_39_53_H_._a6da1dbab15e72488587f943ddaf1f3f_0001_1_af2_0001_0000500054_0000001_0 (protein)
chain: DREELLERIVREKDPRVEELLEEIKEAKERNDEELLEKLAKRLALIAFELGDPEVFALAADLQSI
B10: il2ra_site1_1z92_sap_15_mot_ems_3hM_2197_000000181_0001_1_19_H_._HHH_b2_02502_af2_0001_0000200003_0000001_0_0001_af2pred_0001_af2pred (protein)
chain: KIEIHISNASPRVQEFIELAKQIPDVEVETENYNEYTVHVKDERLARLLERAAKLSGVEVEVHMS
B11: il2ra_site2_3nfp_sap_17_mot_968ffe68aa11d68c04d2634bf871f227_0001_1_af2_000000211_0001_1_14_H_._HHH_b1_06300_0001_0000300019_0000001_0_0001 (protein)
chain: SSSSSRQEEYIKAVIALIEEAIKAGDPESARSMLEVAKMLAEDARNPELLELLEELEEELNSSSS
B12: il2ra_site1_2b5i_sap_13_mot_0e5a94e4a5addaac739760efb25f0f5d_0001_000000289_0001_18_32_H_._HHH_b1_05950_af2_0001_0000200006_0000001_0_0001_af2pred_0001_af2pred_ … (protein)
chain: SSSSDKDERVFELYREASRLFREGNPEEAREVLEEARELAEQAGNEVAVEDIERLLELLKSSSSS
B13: il2ra_site1_1z92_sap_20_mot_HHH_b1_00368_000000203_0001_23_39_H_._HHH_b1_05006_af2_0001_0000500048_0000001_0_0001_af2pred_0001_af2pred (protein)
chain: KADRRLVKRLLEEGIPPEEIAELLIKDSHDAGLVEQMIKALERKAEELNDPELERVARLLEELIK
B14: il2ra_site2_2erj_sap_20_mot_HHH_b1_05944_000000221_0001_38_56_H_._HHH_b2_03548_af2_0001_0000700027_0000001_0_0001 (protein)
chain: SSSSDEELEQVVEELHEEFNLSEAQKATLEHVLEVAREFGWSEETIERWLRIAAELDKEDSSSSS
B15: il2ra_site1_3nfp_normal_mot_HHH_b2_03420_af2_000000062_0001_42_56_H_._437ce1e4c44253f5d945988760af7e00_0001_af2_0001_0000600030_0000001_1_af2pred_0001_af2pred (protein)
chain: SAKEISRILRRLLQRVPPEVRKLLRRVLELLARGDPEEAEEVLREILELVGDPLVERLLELVEKL
B16: il2ra_site2_2erj_normal_mot_HHH_b2_06512_000000233_0001_19_37_H_._HEEHE_1265_0001_0000200003_0000001_0_af2pred_0001_af2pred (protein)
chain: DDEEAVRLSIELAAEHAGIPSIEVSVSNGEIEVRINGNDRAAKFVSLAAKFVAKALGLTVEVEVE
B17: il2ra_site1_3nfp_normal_mot_HHH_b2_02159_000000237_0001_1_17_H_._ems_3hM_790_af2_0001_0001000025_0000001_1_af2pred_0001_af2pred (protein)
chain: SSDEFLEELVERVEKLAEEKNDEEVKELAEQALRLFREAEEKKDHRASHEAIRIVAKLTLLVKSS
B18: il2ra_site1_2b5i_normal_mot_HHH_b1_01949_af2_000000041_0001_1_19_H_._HHH_b1_07462_af2_0001_0000300029_0000001_0_af2pred_0001_af2pred_1 (protein)
chain: SSSSSDIEELLELFREASELFRRGNPEEARKVLEEAIELAEELGDERALEDLRRFLEMAKSSSSS
B19: il2ra_site1_2b5i_sap_24_mot_352c4fd2a8aa45b61cc0090df3da36e7_0001_1_af2_000000070_0001_36_51_H_._678a1b28e3afbd0e6d42a78f97d9d1d3_0001_0001_0000100009_0000001_0 … (protein)
chain: SSSSDIAALVDAAIAAAEAAKAAGRKREALEILEAAAKAAGEAGDEAAEDRLYELARTIKSSSSS
B20: il2ra_site1_3nfp_normal_mot_44d7d87cef3b3f1636c8b2572508b1bf_0001_1_af2_000000239_0001_37_63_H_._HHH_b1_07852_af2_0001_0000100010_0000001_0 (protein)
chain: SSSSSSLKWLEENAEKAFENNDRHNLRALLKIVRRAIEIVGDPEAREVLKLIEELLERLKSSSSS
B21: il2ra_site2_3nfp_normal_mot_HHH_b1_04762_000000120_0001_42_54_H_._HHH_b1_04139_0001_0000300034_0000001_0 (protein)
chain: SSSSTLERMIELALRALEAAIKQGDEELARLSVEYIKAAILLLGDPELEEEVERLEEELNSSSSS
B22: il2ra_site2_3nfp_sap_25_mot_HHH_b2_02633_000000119_0001_1_18_H_._HHH_b1_07793_0001_0000100007_0000001_0_0001 (protein)
chain: SSSSSDEEVEEEVEELLERAKHIEDPFERFAVLADAMTLAVQNEDPELERLVREVIAKLSSSSSS
B23: il2ra_site1_1z92_sap_14_mot_HHH_b1_08075_000000018_0001_1_20_H_._HHH_b1_02177_0001_0000100015_0000001_0_0001 (protein)
chain: SSSSSSSTAAEYAEEMVELLARKNTEKARRQLEFILRAARLMGDEELEKLIERVLEELSSSSSSS
B24: il2ra_site1_1z92_normal_mot_HHH_b1_03515_000000289_0001_1_19_H_._HHH_b1_01341_af2_0001_0000100013_0000001_0 (protein)
chain: SSSSDQEERAARVIVKVLVRLAGLSEEQEEELRQLAEELVERGVDPLEIIKILDRLAAELGSSSS

molecular target: il2ra, P01589; test: yeast display titration

Apparent Kd, inactive:
B1 no binding seen
B2 no binding seen
B3 no binding seen
B4 no binding seen
B5 no binding seen
B6 no binding seen
B7 no binding seen
B8 no binding seen
B9 no binding seen
B10 no binding seen
B11 no binding seen
B12 no binding seen
B13 no binding seen
B14 no binding seen
B15 no binding seen
B16 no binding seen
B17 no binding seen
B18 no binding seen
B19 no binding seen
B20 no binding seen
B21 no binding seen
B22 no binding seen
B23 no binding seen
B24 no binding seen

As a working copy, part of the list above.
Apparent Kd, inactive:
B5 no binding seen
B6 no binding seen
